Test results from PMC10912200.
These are yes or no findings as the source states them, for the method shown. Some results given as binding are weak or reduced against the parent protein; the word gives no strength. Where a sequence is shown, tags or fusion partners need not be part of it.

Chains of the proteins cited; added tags and fusions are not shown.
UniProt O15393: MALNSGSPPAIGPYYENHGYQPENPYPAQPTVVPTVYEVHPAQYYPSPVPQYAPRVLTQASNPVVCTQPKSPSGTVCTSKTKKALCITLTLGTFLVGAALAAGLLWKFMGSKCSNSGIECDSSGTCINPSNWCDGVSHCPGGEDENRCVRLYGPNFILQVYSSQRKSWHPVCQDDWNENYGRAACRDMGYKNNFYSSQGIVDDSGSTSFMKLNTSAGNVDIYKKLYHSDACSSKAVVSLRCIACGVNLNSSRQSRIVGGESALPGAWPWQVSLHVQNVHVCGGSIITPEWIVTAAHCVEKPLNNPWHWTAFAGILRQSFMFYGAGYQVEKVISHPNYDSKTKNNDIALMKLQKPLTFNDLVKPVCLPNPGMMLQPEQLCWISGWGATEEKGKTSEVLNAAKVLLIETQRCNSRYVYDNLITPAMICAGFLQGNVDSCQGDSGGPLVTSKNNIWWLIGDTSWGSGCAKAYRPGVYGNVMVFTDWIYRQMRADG

Target: TMPRSS2 on MCF-7 cells (human (endogenous in MCF-7)) (UniProt O15393)
Test: confocal fluorescence microscopy of cell surface binding; only the binder purified

B1: GFP-TcsH^2210–2618 (WT) (domain or fragment, UniProt M9ZTT7 2210-2618)
chain: AITGWQVIDDKKYYFNSNTAVADTNLCTINNEKYYFSYDGILQNGYITIGRLNFYFDSNNDSKMTTGVFKGPNGFEYFAPANTYNNNLEGQAIVYQNKFLTINGKKYYFDNKSKAVTGWQTIDGKKYYFNPNTAIAAMGWQAIDGKKYYFNPNTAIATTGWQTIDGKKYYFNPNTAIAATGWQAIDGKKYYFNPNTATTSIGYTTINSKNFYFNNDGIMQLGVFKGPDGFEYFAPANTHNNNEEGQSITYQNKFLIFNEDVYYFDSSSKAVTGWRTIDDHRFYFEPNTGIGANGYKTLDGKNFYFRNGLPQFGVFKGPDGFEYFAPANTHNNNEEGQSITYQNKFLVFLGNRYYFDSSSKAVTGWQTINGNTYYFMPDTAIAAAGGFFTIDGAIYFFGIDGVKQPGIYG
binding: binds
